Data as given in PubChem BioAssay AID1259308 (NCATS, 2017)
The deposit covers about 59,000 reagents; below is an unselected part. About 1,510 of them (2.6%) were called active. 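Calls use total luciferase alone and ignore viability, so some active siRNAs may act by altering cell number.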 Reagents against one gene are numbered here. Further read-outs or replicates are left out here.

Aim: 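Genes whose loss raises luciferase production in HEK293 cells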 (primary screen)
Cell system: human HEK293 embryonic kidney cells stably expressing firefly luciferase (HEK-CMV-Luc2-Hygro)
Reagent: single siRNA against human genes, 0.8 pmol siRNA per well
Time to read-out: 72 h
Read-out: 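Reporter luminescence and viable-cell signal on separate replicate plates, given as percent of non-targeting control and median/MAD z-scores, plus per-cell luciferase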
Direction: total luciferase, z-score and total luciferase, % of control: higher = more reporter protein produced; luciferase per cell, z-score: higher = more reporter output per viable cell
Hit rule: 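An siRNA counts as active if its total luciferase robust z-score exceeds 3; genes with two or more such siRNAs out of three were retested with fresh siRNAs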
Meaning of the calls: active = raised luciferase; inactive = no rise

gene,reagent,"total luciferase, z-score","total luciferase, % of control","luciferase per cell, z-score",activity call
COBL,1,-0.295,76,-0.27,inactive
COBL,2,-1.96,42.9,-2.39,inactive
COBL,3,-1.04,61.3,-1.32,inactive
CEACAM20,1,-0.3,75.9,0.308,inactive
CEACAM20,2,0.5,91.8,0.0273,inactive
CEACAM20,3,1.25,107,1.72,inactive
EPHX3,1,1.79,117,2.69,inactive
EPHX3,2,-0.146,79,0.341,inactive
EPHX3,3,0.64,94.6,-0.418,inactive

Reprinted from above for reference:
gene,reagent,"total luciferase, z-score","total luciferase, % of control","luciferase per cell, z-score",activity call
EPHX3,1,1.79,117,2.69,inactive
EPHX3,2,-0.146,79,0.341,inactive
EPHX3,3,0.64,94.6,-0.418,inactive

More entries:
gene,reagent,"total luciferase, z-score","total luciferase, % of control","luciferase per cell, z-score",activity call
CAMK1D,1,2.61,134,3.8,inactive
CAMK1D,2,-0.165,78.6,-0.499,inactive
CAMK1D,3,-1.11,59.8,-1.56,inactive
TAF4,1,0.619,94.2,0.208,inactive
TAF4,2,-0.572,70.5,1.3,inactive
TAF4,3,3.43,150,2.44,active
PCDH15,1,-0.0556,80.8,-0.453,inactive
PCDH15,2,4.98,181,2.57,active
PCDH15,3,0.126,84.4,1.07,inactive
CTSF,1,-0.494,72.1,-0.832,inactive
CTSF,2,-0.971,62.6,-1.07,inactive
CTSF,3,2.58,133,1.63,inactive
TGM4,1,0.171,85.3,-0.198,inactive
TGM4,2,0.513,92.1,0.136,inactive
TGM4,3,0.675,95.3,0.459,inactive
